Measured values: article PMC10646254
Residue numbers refer to the chain shown, from its start. These are yes or no findings as the source states them, for the method shown. Binding seen in cells or lysates may run through a third protein. Some binding calls cover weakened binding; strength is not graded here. For part of these data: Sequences can lack the tags named with a protein.

Amino acid sequences for entries named in this document (tags omitted).
UniProt P08047: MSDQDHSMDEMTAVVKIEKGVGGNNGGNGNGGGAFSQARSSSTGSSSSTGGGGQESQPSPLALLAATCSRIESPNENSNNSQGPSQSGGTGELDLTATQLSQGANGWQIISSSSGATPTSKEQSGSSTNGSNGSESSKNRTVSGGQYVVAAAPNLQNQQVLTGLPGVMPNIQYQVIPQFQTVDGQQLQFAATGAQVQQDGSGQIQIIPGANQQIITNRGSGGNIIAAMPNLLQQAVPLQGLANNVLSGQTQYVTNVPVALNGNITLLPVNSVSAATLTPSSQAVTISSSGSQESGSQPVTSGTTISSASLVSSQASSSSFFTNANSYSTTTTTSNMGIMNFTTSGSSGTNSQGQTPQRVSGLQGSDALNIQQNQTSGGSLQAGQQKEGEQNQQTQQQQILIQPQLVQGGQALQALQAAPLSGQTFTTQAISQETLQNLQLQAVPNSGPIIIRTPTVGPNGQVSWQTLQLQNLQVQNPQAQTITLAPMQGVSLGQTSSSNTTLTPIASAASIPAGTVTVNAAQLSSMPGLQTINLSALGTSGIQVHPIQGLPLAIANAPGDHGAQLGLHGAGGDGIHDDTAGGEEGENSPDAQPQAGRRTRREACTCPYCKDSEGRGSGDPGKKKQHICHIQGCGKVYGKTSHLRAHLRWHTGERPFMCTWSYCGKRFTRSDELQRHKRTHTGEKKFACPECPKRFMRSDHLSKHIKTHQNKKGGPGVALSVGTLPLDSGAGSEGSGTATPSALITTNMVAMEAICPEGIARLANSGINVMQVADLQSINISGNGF
UniProt Q02447: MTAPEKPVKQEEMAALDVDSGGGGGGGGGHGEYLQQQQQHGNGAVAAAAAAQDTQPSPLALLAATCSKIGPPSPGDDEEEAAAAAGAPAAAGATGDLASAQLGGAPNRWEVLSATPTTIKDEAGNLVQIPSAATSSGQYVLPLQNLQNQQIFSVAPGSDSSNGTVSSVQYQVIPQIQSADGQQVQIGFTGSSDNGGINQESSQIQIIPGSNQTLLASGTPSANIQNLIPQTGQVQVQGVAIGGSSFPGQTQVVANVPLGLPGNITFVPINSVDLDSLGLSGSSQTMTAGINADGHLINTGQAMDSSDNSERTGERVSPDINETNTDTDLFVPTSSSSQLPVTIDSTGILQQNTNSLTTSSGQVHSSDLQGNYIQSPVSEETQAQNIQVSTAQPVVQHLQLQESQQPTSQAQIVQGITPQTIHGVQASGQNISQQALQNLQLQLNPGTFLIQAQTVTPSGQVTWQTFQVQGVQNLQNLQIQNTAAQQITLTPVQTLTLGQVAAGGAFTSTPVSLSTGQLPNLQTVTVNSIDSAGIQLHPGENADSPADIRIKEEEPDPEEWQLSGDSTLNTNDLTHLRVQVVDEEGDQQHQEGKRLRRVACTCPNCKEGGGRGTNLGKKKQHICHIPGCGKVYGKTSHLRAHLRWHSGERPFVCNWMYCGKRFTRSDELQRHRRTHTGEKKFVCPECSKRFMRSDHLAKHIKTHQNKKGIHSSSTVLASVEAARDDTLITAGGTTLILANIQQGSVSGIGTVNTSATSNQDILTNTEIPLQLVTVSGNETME

Assays:
[1] = molecular target: T1, FLAG-tagged ELK4 (wild type) (human) (UniProt P28324); test: co-IP; ELK4 with full-length SP1 or SP3 and their serial truncations (domain deletions); cell line not stated
T1 sequence: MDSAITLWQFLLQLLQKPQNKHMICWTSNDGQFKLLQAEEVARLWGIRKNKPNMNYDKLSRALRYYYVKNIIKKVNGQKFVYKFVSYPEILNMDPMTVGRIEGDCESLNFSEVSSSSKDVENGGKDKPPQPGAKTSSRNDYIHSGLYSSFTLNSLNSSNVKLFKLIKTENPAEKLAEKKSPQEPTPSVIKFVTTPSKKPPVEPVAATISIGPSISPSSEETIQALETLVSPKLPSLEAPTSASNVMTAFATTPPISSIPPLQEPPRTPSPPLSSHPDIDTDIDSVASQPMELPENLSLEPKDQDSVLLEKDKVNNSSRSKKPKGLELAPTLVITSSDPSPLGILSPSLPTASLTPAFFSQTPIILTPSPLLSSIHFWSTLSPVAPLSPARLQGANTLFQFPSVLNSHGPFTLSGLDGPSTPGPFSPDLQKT

[2] = molecular target: T2, endogenous ELK4 (human (endogenous in HCT116, SW480, RKO)) (UniProt P28324); test: proximity ligation; Duolink in situ PLA on fixed, permeabilised HCT116, SW480 and RKO cells with antibodies against ELK4 and SP1 or SP3
T2 sequence: T1 sequence

[3] = molecular target: T1, FLAG-tagged ELK4 (wild type) (human); test: co-IP; serum-stimulated cells; in vitro dephosphorylation by λ-protein phosphatase (λ-PPase)
[4] = molecular target: T1, FLAG-tagged ELK4 (wild type) (human); test: co-IP; HCT116 cells transfected for 24 h; lysis in 20 mM Tris-HCl pH 8.0, 150 mM NaCl, 1% NP40; agarose beads 3 h at 4 °C; cells with or without serum stimulation (indicated concentrations, 10% for 15 min), U0126 (10 µM), selumetinib or ulixertinib
[5] = molecular target: T3, ELK4 T361/T366/S381/S387E mutant (human) (UniProt P28324); test: as above
T3 sequence: T1 sequence with T361E, T366E, S381E, S387E

[6] = molecular target: T4, P329A mutant ELK4 (human) (UniProt P28324); test: as above
T4 sequence: T1 sequence with P329A

binding [1] | binding [2] | binding [3] | binding [4] | binding [5] | binding [6] | Substance
binds | – | – | – | – | – | SP1, full length, in the pcDNA-HA expression vector (from UniProt P08047 1-785)
binds | – | – | – | – | – | SP3, full length, in the pcDNA-HA expression vector (from UniProt Q02447 1-781)
– | binds | binds weakly | binds | binds | binds | endogenous SP1 (from UniProt P08047 1-785)
– | binds | binds weakly | binds | binds | binds | endogenous SP3 (from UniProt Q02447 1-781)
